Results deposited as PubChem BioAssay AID1259288 (Sanger Institute, 2017)
Aim: 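Follow up primary screen gene-drug synthetic lethal pairs using separate siRNA duplexes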 (follow-up of hits with single siRNAs). Cell system: HT29 human colorectal cancer cells. Reagent: single siRNA against human genes. Treatment: anchor drugs BYL719 (1 µM), cetuximab (5 µg/ml) or trametinib (10 nM), or DMSO vehicle; each drug dosed to cause only modest loss of viability on its own. Read-out: 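Synergy score comparing combined siRNA and drug against siRNA alone and drug alone, and viability averaged over replicates and normalised to control pool 2 (non-targeting)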. Reading the numbers: synergy score with BYL719 and synergy score with trametinib and synergy score with cetuximab: higher = stronger combined killing than expected from each alone. Call rule: 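a gene counts as active if its synergy score is above 0.10 for one or more anchor drugs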.
In all, the deposit lists 160 reagents; shown is an unselected part. Over the whole deposit, 7 (4.4%) are marked active. 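Active calls arise only from BYL719 or trametinib; no cetuximab synergy went beyond 0.10; drug doses chosen to have mild effect alone.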 The numbers tell different reagents against one gene apart. Further read-outs or replicates are left out here. Reagent sequences are not shown. Not stated in the record: the amount of reagent, the time to read-out.

PIK3CA #1 gave synergy score with BYL719 = -0.0395; synergy score with trametinib -0.0373; synergy score with cetuximab 0.026; inactive.
PIK3CA #2 showed synergy score with BYL719 = -0.291; synergy score with trametinib -0.0652; synergy score with cetuximab -0.14; inactive.
PIK3CA #3 gave synergy score with BYL719 = -0.169; synergy score with trametinib 0.0718; synergy score with cetuximab -0.0874; inactive.
Against PIK3CA #4, the values are synergy score with BYL719 = -0.139; synergy score with trametinib 0.0562; synergy score with cetuximab 0.0665; inactive.
Against STK36 #1, the entry reads synergy score with BYL719 = -0.215; synergy score with trametinib -0.036; synergy score with cetuximab -0.223; inactive.
For STK36 #2, the values are synergy score with BYL719 = -0.134; synergy score with trametinib -0.0398; synergy score with cetuximab -0.096; inactive.
With knock-down of STK36 #3 the results were synergy score with BYL719 = -0.158; synergy score with trametinib 0.0276; synergy score with cetuximab -0.179; inactive.
Against STK36 #4 the deposit lists synergy score with BYL719 = -0.185; synergy score with trametinib -0.0654; synergy score with cetuximab -0.18; inactive.
Against HSPB8 #1, the entry reads synergy score with BYL719 = -0.187; synergy score with trametinib 0.0662; synergy score with cetuximab -0.179; inactive.
HSPB8 #2 gave synergy score with BYL719 = -0.288; synergy score with trametinib -0.0375; synergy score with cetuximab -0.0223; inactive.
Knock-down of HSPB8 #3 came out at: synergy score with BYL719 = -0.232; synergy score with trametinib -0.118; synergy score with cetuximab -0.0726; inactive.
For HSPB8 #4 the deposit lists synergy score with BYL719 = -0.321; synergy score with trametinib -0.0501; synergy score with cetuximab -0.171; inactive.
After knock-down of GRK5 #1 the results were synergy score with BYL719 = -0.222; synergy score with trametinib -0.0649; synergy score with cetuximab -0.101; inactive.
Against GRK5 #2, the entry reads synergy score with BYL719 = -0.109; synergy score with trametinib -0.0743; synergy score with cetuximab 0; inactive.
Knock-down of GRK5 #3 came out at: synergy score with BYL719 = -0.0668; synergy score with trametinib 0.0386; synergy score with cetuximab -0.173; inactive.
Against GRK5 #4 the deposit lists synergy score with BYL719 = -0.129; synergy score with trametinib 0.00412; synergy score with cetuximab 0; inactive.
BRAF #1 scored synergy score with BYL719 = 0.0825; synergy score with trametinib -0.00229; synergy score with cetuximab -0.0247; inactive.
BRAF #2 showed synergy score with BYL719 = 0.0752; synergy score with trametinib 0.0401; synergy score with cetuximab -0.0611; inactive.
Against BRAF #3, the entry reads synergy score with BYL719 = -0.0198; synergy score with trametinib 0.0385; synergy score with cetuximab -0.035; inactive.
Depletion of BRAF #4 came out at: synergy score with BYL719 = 0.0134; synergy score with trametinib -0.0512; synergy score with cetuximab -0.0657; inactive.
For GUCY2D #1, the entry reads synergy score with BYL719 = -0.0907; synergy score with trametinib -0.0248; synergy score with cetuximab -0.0502; inactive.
For GUCY2D #2 the deposit lists synergy score with BYL719 = -0.0268; synergy score with trametinib 0.0272; synergy score with cetuximab -0.132; inactive.
For GUCY2D #3 the deposit lists synergy score with BYL719 = -0.222; synergy score with trametinib -0.0925; synergy score with cetuximab -0.125; inactive.
For GUCY2D #4, the entry reads synergy score with BYL719 = -0.255; synergy score with trametinib -0.0138; synergy score with cetuximab 0; inactive.

Copied from the listing, 3 entries:
BRAF #4 | synergy score with BYL719: 0.0134; synergy score with trametinib: -0.0512; synergy score with cetuximab: -0.0657; call: inactive
GUCY2D #1 | synergy score with BYL719: -0.0907; synergy score with trametinib: -0.0248; synergy score with cetuximab: -0.0502; call: inactive
GUCY2D #2 | synergy score with BYL719: -0.0268; synergy score with trametinib: 0.0272; synergy score with cetuximab: -0.132; call: inactive
